Results are given in words; binding and its absence hold for the method and conditions named. In cells and extracts the contact can be indirect. Some binding calls cover weakened binding; strength is not graded here.
Assays:
Assay in all cases: co-immunoprecipitation, tagged proteins transiently expressed in 293T cells
Caspase-1 = Caspase-1 (UniProt P29466)
Caspase-2 = target: T1, Caspase-2 (UniProt P42575)
T1 sequence (looked up): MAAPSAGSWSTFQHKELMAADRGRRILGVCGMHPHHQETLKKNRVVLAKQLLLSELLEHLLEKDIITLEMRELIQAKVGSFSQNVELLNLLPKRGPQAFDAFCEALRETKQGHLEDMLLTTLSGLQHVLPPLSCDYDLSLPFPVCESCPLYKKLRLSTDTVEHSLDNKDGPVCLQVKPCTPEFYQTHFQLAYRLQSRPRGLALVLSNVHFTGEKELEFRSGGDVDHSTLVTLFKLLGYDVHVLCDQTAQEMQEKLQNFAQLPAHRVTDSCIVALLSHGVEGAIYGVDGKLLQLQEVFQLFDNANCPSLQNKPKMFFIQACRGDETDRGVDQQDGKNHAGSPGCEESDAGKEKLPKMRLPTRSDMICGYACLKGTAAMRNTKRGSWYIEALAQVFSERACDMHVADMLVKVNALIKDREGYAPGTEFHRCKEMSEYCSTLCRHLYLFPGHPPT

Sequences of proteins named here, by UniProt entry; tags and fusion partners are left off. A change or cut given only in a name is not applied to a line headed by its entry.
UniProt P29466: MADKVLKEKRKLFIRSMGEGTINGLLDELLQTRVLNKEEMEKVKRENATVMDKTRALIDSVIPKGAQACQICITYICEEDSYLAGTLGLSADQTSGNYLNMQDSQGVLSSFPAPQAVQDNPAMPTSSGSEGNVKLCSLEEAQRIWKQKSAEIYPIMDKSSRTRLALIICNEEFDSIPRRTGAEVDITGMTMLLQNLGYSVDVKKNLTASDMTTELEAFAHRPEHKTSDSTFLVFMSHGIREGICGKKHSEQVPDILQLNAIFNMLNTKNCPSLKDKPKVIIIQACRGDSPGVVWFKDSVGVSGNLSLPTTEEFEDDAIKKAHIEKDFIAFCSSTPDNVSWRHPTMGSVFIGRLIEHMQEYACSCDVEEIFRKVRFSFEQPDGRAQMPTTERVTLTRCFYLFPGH
UniProt Q14790: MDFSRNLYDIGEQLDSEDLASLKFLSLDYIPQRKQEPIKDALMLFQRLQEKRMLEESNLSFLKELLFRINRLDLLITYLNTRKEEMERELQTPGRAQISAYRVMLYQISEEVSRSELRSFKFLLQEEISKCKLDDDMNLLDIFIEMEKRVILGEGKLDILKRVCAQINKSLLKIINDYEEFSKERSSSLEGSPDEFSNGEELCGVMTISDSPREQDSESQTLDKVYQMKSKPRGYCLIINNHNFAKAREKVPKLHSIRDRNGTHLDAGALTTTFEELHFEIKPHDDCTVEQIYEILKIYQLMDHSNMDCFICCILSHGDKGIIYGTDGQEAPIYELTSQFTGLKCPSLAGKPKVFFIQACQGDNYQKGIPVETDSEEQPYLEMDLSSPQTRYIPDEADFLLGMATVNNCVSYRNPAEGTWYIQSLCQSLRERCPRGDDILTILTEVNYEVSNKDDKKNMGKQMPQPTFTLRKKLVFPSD
UniProt Q9Y239: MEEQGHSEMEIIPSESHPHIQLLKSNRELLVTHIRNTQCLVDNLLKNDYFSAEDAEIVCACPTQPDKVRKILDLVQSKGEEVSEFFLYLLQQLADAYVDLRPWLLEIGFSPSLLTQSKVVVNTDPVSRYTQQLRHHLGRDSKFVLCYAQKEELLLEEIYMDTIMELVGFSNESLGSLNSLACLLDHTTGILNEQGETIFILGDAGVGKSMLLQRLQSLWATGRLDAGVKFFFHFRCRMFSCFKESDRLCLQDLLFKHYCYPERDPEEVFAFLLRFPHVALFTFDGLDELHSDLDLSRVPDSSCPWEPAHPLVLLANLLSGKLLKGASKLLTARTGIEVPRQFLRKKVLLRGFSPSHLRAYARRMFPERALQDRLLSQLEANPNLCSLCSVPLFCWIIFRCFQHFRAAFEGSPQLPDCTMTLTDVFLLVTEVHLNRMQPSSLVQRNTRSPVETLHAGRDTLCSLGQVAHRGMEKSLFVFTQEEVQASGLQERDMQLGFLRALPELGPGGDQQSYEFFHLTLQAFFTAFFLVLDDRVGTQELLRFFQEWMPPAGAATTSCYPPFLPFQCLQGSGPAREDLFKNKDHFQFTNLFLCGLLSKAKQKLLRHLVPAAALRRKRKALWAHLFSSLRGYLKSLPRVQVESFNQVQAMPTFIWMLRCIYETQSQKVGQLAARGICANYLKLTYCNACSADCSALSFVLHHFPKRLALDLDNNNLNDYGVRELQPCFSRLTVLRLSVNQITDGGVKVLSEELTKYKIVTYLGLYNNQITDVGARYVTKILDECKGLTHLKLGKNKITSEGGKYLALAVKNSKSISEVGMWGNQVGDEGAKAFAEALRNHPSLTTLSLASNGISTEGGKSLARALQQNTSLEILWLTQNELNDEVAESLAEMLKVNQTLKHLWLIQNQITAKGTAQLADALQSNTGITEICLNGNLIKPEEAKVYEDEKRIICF

Caspase-8 = Caspase-8 (UniProt Q14790)
ARC = target: T2, ARC (UniProt O60936)
T2 sequence (looked up): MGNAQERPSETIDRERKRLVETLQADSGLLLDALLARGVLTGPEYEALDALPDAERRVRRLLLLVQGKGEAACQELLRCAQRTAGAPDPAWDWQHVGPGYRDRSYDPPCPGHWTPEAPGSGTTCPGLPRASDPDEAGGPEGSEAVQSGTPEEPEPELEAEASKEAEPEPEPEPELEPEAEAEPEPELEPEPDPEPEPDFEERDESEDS

Caspase-4 = target: T3, Caspase-4 (UniProt P49662)
T3 sequence (looked up): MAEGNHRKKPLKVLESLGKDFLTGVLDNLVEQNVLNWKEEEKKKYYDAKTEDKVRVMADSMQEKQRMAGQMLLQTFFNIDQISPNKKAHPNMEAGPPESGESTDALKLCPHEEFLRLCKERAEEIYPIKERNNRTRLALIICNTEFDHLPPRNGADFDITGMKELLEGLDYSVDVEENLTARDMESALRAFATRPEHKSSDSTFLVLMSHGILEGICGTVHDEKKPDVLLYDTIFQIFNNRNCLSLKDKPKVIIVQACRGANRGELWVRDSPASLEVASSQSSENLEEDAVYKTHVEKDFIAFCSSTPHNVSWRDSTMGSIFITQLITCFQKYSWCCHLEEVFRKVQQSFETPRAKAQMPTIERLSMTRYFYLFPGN

Measured: binding

Nod1 (from UniProt Q9Y239 1-953)
binds: all assays above

— US20030049732A1
